This note sets out measurements from PubChem BioAssay AID330 (DTP/NCI, 2004).

The list is a part of this screen's results and no random one: it gathers tests that were run many times, whatever their T/C, doses with no T/C, and many T/C values between a quarter and a half above the control. Other doses and runs of a compound stand elsewhere. T/C: endpoint of the treated group in % of that of the vehicle group. Some doses have a count of surviving animals in place of a T/C: the source holds a T/C of zero for them, seemingly a mark for toxic or unscored doses. Some doses without a T/C left all or most animals alive at the check, yet need not have been tolerated: the source hardly ever lists a survival T/C far under the control, and the zero likely stands for such cases as well. Survivors were counted at the toxicity check, usually on the fifth day, unless a day is given; later deaths do not show. Schedule codes are those of the source, taken here to give the interval after Q, in days (D) or hours (H), and the number of doses after X. Some molecules as drawn cover several salts, stereoisomers or complexes of the source; a dose is that of the sample tested. For survival time, this PubChem deposit counts one and a half times the control or more as active, and values a quarter to a half above the control carry no call in these data; other NCI protocols may use other cut-offs.

The test system of this assay is P388 leukemia ip, CD2F1 mice, survival T/C. The assay can be described thus: NCI In Vivo Anticancer Drug Screen. Data for tumor model P388 Leukemia (intraperitoneal) in CD2F1 (CDF1) mice. To be noted: T/C endpoint: median survival time, higher T/C = longer survival.
Setting [1] is: dose: 120.0 mg/kg/injection, schedule: Q01DX005 (ip), vehicle: saline with Tween-80.
The mark [2] stands for this setting: dose: 240.0 mg/kg/injection, schedule: Q01DX005 (ip), vehicle: saline with Tween-80.
[3] abbreviates: dose: 200.0 mg/kg/injection, schedule: Q01DX009 (ip), vehicle: saline.
Setting [4] is: dose: 100.0 mg/kg/injection, schedule: Q01DX009 (ip), vehicle: Klucel (hydroxypropylcellulose) (HPC).
Where [5] appears, read: dose: 200.0 mg/kg/injection, schedule: Q01DX009 (ip), vehicle: Klucel (hydroxypropylcellulose) (HPC).
Where [6] appears, read: dose: 30.0 mg/kg/injection, schedule: Q01DX005 (ip), vehicle: saline with Tween-80.
Where [7] appears, read: dose: 60.0 mg/kg/injection, schedule: Q01DX005 (ip), vehicle: saline with Tween-80.

As to `CCC(C)C1NC(=O)C(NC(=O)c2c3nc4c(C(=O)NC5C(=O)NC(C(C)CC)C(=O)N6CCCC6C(=O)N(C)CC(=O)N(C)C(C(C)C)C(=O)OC5C)cc(N)c(C)c4oc-3c(C)c(=O)c2N)C(C)OC(=O)C(C(C)C)N(C)C(=O)CN(C)C(=O)C2CCCN2C1=O` (centres undefined), the survivor count runs as follows: (dose: 0.4 mg/kg/injection, schedule: Q01DX009 (ip), vehicle: Klucel (hydroxypropylcellulose) (HPC)) 6 of 6; (dose: 0.8 mg/kg/injection, schedule: Q01DX009 (ip), vehicle: Klucel (hydroxypropylcellulose) (HPC)) 6 of 6; (dose: 1.6 mg/kg/injection, schedule: Q01DX009 (ip), vehicle: Klucel (hydroxypropylcellulose) (HPC)) 0 of 6. The T/C runs as follows: (dose: 44.0 micrograms/kg/injection, schedule: Q01DX009 (ip), vehicle: water) 125 % of control; (dose: 66.0 micrograms/kg/injection, schedule: Q01DX009 (ip), vehicle: water) 133 % of control.
Turning to `Cc1ccc(C(N)=Nc2ccccc2)cc1`, the survivor count was 0 of 6 under setting [1] and 0 of 6 under setting [2].
Take `NC1=NC2CC(N1)c1ccc(O)cc1O2` (centres undefined): the survivor count under setting [3] was 2 of 6.
In the case of `Clc1ccc(C2NCCNCc3ccccc32)cc1` (centres undefined), the survivor count by setting is: (dose: 200.0 mg/kg/injection, schedule: Q01DX009 (ip), vehicle: saline with Tween-80) 0 of 6; (dose: 400.0 mg/kg/injection, schedule: Q01DX009 (ip), vehicle: saline with Tween-80) 0 of 6.
Consider `COC1OC(CS[As](C)C)C(O)C(O)C1O` (centres undefined), for which the survivor count by setting is: under setting [4], 3 of 6; under setting [5], 0 of 6.
Consider `CC([NH-])C[NH-].CC([NH-])C[NH-].CC([NH-])C[NH-].[Co]` (centres undefined), for which, under “dose: 200.0 mg/kg/injection, schedule: Q04DX003 (ip), vehicle: water”, the survivor count is given as 4 of 6.
Turning to `CCOC(=O)C(Cc1ccc(N(CCCl)CCCl)cc1)NC(=O)C(CC(C)C)NC(C)=O` (centres undefined), the survivor count reads like this: under setting [4], 4 of 6; (dose: 160.0 mg/kg/injection, schedule: Q04DX003 (ip), vehicle: other) 3 of 6; under setting [5], 4 of 6; (dose: 400.0 mg/kg/injection, schedule: Q01DX009 (ip), vehicle: Klucel (hydroxypropylcellulose) (HPC)) 2 of 6.
In the case of `CCC(=O)NCC(CN(C)C)(c1ccccc1)c1ccccc1`, the survivor count (dose: 400.0 mg/kg/injection, schedule: Q01DX001 (ip), vehicle: saline with Tween-80) is recorded as 0 of 6.
Turning to `Nc1ccc2nc3c(N)ccc(N)c3nc2c1`, where the note is “dose: 240.0 mg/kg/injection, schedule: Q01DX005 (ip), vehicle: saline”, the T/C was 137 % of control.
Turning to `COC(=O)NC1C(=O)CCC(=O)C1C(N)=O` (centres undefined), the survivor count is reported as 3 of 6 under setting [6], 0 of 6 under setting [7], 0 of 6 under setting [1] and 0 of 6 under setting [2].
As to `CN(C)CCOc1ccc2c(c1)C1=NN(c3ccccc3)C(=O)CC1CO2` (centres undefined), the survivor count under setting [2] was 0 of 6.
Turning to `Cc1cc2c(cc1C)C(=O)C(Br)=C(N)C2=O`, under “dose: 100.0 mg/kg/injection, schedule: Q01DX005 (ip), vehicle: saline with Tween-80”, the survivor count is on record as 6 of 6.
With `O=C(Nc1ccc(Cl)cc1)Nc1nnc2nc(C(C(=O)c3ccc(O)cc3O)c3nc4nnc(NC(=O)Nc5ccc(Cl)cc5)n4[nH]c3=O)c(=O)[nH]n12`, the survivor count under setting [2] is recorded as 6 of 6.
In the case of `Cc1cc(N)cc(N)c1O`, the survivor count (dose: 12.5 mg/kg/injection, schedule: Q01DX009 (ip), vehicle: saline) was 0 of 6; the survivor count (dose: 25.0 mg/kg/injection, schedule: Q01DX009 (ip), vehicle: saline) is reported as 0 of 6; the survivor count (dose: 50.0 mg/kg/injection, schedule: Q01DX009 (ip), vehicle: saline) is 0 of 6; the survivor count (dose: 100.0 mg/kg/injection, schedule: Q01DX009 (ip), vehicle: saline) is on record as 0 of 6; the survivor count under setting [3] is on record as 0 of 6; the survivor count (dose: 400.0 mg/kg/injection, schedule: Q01DX009 (ip), vehicle: saline) is recorded as 0 of 6. Also, the survivor count (dose: 600.0 mg/kg/injection, schedule: Q01DX009 (ip), vehicle: saline) was 0 of 6.
With `Cc1ccc2c(c1)C(=Nc1ccc(Cl)cc1)C(=O)N2`, the survivor count (dose: 3.75 mg/kg/injection, schedule: Q01DX005 (ip), vehicle: saline with Tween-80) is reported as 6 of 6; the survivor count (dose: 7.5 mg/kg/injection, schedule: Q01DX005 (ip), vehicle: saline with Tween-80) is reported as 6 of 6; the survivor count (dose: 15.0 mg/kg/injection, schedule: Q01DX005 (ip), vehicle: saline with Tween-80) is 6 of 6; the survivor count under setting [6] is 6 of 6; the survivor count under setting [7] was 6 of 6.
As for `Clc1ncnc2c1ncn2C1CCCCO1` (centres undefined), the survivor count (dose: 400.0 mg/kg/injection, schedule: Q01DX009 (ip), vehicle: other) is listed as 6 of 6.
As to `NC(=O)c1cn(C2OC(CO)C(O)C2O)c2ncnc(N)c12` (centres undefined), the T/C was 125 % of control (dose: 0.25 mg/kg/injection, schedule: Q01DX009 (ip), vehicle: suspension in saline); 127 % of control (dose: 0.5 mg/kg/injection, schedule: Q04DX003 (ip), vehicle: saline); 127 % of control (dose: 1.0 mg/kg/injection, schedule: Q04DX003 (ip), vehicle: saline); 140 % of control (dose: 2.0 mg/kg/injection, schedule: Q04DX003 (ip), vehicle: saline); 131 % of control (dose: 4.0 mg/kg/injection, schedule: Q04DX003 (ip), vehicle: saline). The survivor count is, setting by setting: (dose: 1.0 mg/kg/injection, schedule: Q03HX024 (ip), vehicle: saline) 10 of 10; (dose: 2.0 mg/kg/injection, schedule: Q03HX008 (ip), vehicle: saline) 1 of 10; (dose: 2.0 mg/kg/injection, schedule: Q03HX016 (ip), vehicle: saline) 4 of 10; (dose: 4.0 mg/kg/injection, schedule: Q01DX009 (ip), vehicle: suspension in saline) 6 of 6; (dose: 6.0 mg/kg/injection, schedule: Q04DX003 (ip), vehicle: saline) 6 of 6; (dose: 8.0 mg/kg/injection, schedule: Q01DX009 (ip), vehicle: suspension in saline) 2 of 6. Further, the survivor count is recorded as 10 of 10 (dose: 8.0 mg/kg/injection, schedule: Q04DX003 (ip), vehicle: saline); 5 of 6 (dose: 9.0 mg/kg/injection, schedule: Q04DX003 (ip), vehicle: saline); 0 of 10 (dose: 16.0 mg/kg/injection, schedule: Q01DX001 (ip), vehicle: saline); 3 of 10 (dose: 16.0 mg/kg/injection, schedule: Q08DX002 (ip), vehicle: saline).
